PubChem BioAssay AID1259405, NCATS – 2018

- Purpose: 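Knock-downs that lift recombinant protein yield in hamster ovary cells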 (primary screen)
- Cells: Chinese hamster CHO-K1 ovary cells with stable secreted eGFP expression
- Reagent: single siRNA against mouse genes, 0.8 pmol siRNA per well (2 µl of 400 nM stock)
- Duration: 3 days
- Read-out: 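Per-well intracellular GFP measured by laser scanning cytometry, plus viability from ATP luminescence, each relative to plate median of non-targeting control wells, in %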
- Reading the numbers: GFP, % of control: higher = more GFP per well, higher productivity; viability (ATP), % of control: higher = more viable cells (more ATP)
- Rule for the call: 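a knock-down is called active if GFP reaches 120% or more of non-targeting control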
Here is an unselected part of about 50,000 deposited reagents. About 4,000 of them (8%) were called active. 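Mouse siRNA library applied to hamster cells; one well for each siRNA.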 The numbers tell different reagents against one gene apart.

| Gene | siRNA no. | GFP, % of control | viability (ATP), % of control | activity call |
| --- | --- | --- | --- | --- |
| Cadps (GeneID 27062) | 1 | 87.9 | 92.5 | inactive |
| Cadps (GeneID 27062) | 2 | 78.2 | 84.1 | inactive |
| Elp4 (GeneID 77766) | 1 | 65.5 | 71.9 | inactive |
| Elp4 (GeneID 77766) | 2 | 113 | 87.8 | inactive |
| Elp4 (GeneID 77766) | 3 | 85.4 | 65.7 | inactive |
| Or52e18 (GeneID 384703) | 1 | 112 | 65.1 | inactive |
| Or52e18 (GeneID 384703) | 2 | 93.1 | 74.2 | inactive |
| Or52e18 (GeneID 384703) | 3 | 75.4 | 98.3 | inactive |
| 4933430I17Rik (GeneID 214106) | 1 | 27.7 | 59 | inactive |
| 4933430I17Rik (GeneID 214106) | 2 | 63.5 | 86.6 | inactive |
| 4933430I17Rik (GeneID 214106) | 3 | 107 | 126 | inactive |
| Mfng (GeneID 17305) | 1 | 26.9 | 23.9 | inactive |
| Mfng (GeneID 17305) | 2 | 108 | 130 | inactive |
| Mfng (GeneID 17305) | 3 | 82.1 | 144 | inactive |
| Wwtr1 (GeneID 97064) | 1 | 149 | 95 | active |
| Wwtr1 (GeneID 97064) | 2 | 108 | 86.3 | inactive |
| Wwtr1 (GeneID 97064) | 3 | 137 | 86.3 | active |
| Sec22c (GeneID 215474) | 1 | 45.6 | 48.7 | inactive |
| Sec22c (GeneID 215474) | 2 | 14.6 | 17.3 | inactive |
| Sec22c (GeneID 215474) | 3 | 78.2 | 72.1 | inactive |
| Marchf2 (GeneID 224703) | 1 | 57.3 | 52.6 | inactive |
| Marchf2 (GeneID 224703) | 2 | 84.8 | 85.8 | inactive |
| Marchf2 (GeneID 224703) | 3 | 120 | 85.3 | active |
| Hbp1 (GeneID 73389) | 1 | 77 | 72.8 | inactive |
| Hbp1 (GeneID 73389) | 2 | 195 | 81 | active |
| Hbp1 (GeneID 73389) | 3 | 85.8 | 60 | inactive |
| Tmem59l (GeneID 67937) | 1 | 77.7 | 83.8 | inactive |
| Tmem59l (GeneID 67937) | 2 | 79.1 | 89 | inactive |
| Tmem59l (GeneID 67937) | 3 | 102 | 107 | inactive |
| Pkn1 (GeneID 320795) | 1 | 99.8 | 64.5 | inactive |
| Pkn1 (GeneID 320795) | 2 | 48.5 | 43.4 | inactive |
| Pkn1 (GeneID 320795) | 3 | 179 | 130 | active |
| Pkn1 (GeneID 320795) | 4 | 98.9 | 91.5 | inactive |
| Pkn1 (GeneID 320795) | 5 | 86 | 87.3 | inactive |
| Pkn1 (GeneID 320795) | 6 | 79.8 | 89.8 | inactive |

No new results follow: entries from further up.
| Gene | siRNA no. | GFP, % of control | viability (ATP), % of control | activity call |
| --- | --- | --- | --- | --- |
| Hbp1 (GeneID 73389) | 1 | 77 | 72.8 | inactive |
| Hbp1 (GeneID 73389) | 2 | 195 | 81 | active |
| Hbp1 (GeneID 73389) | 3 | 85.8 | 60 | inactive |
| Tmem59l (GeneID 67937) | 1 | 77.7 | 83.8 | inactive |
